In PMC11528023, “Transport mechanism and structural pharmacology of human urate transporter URAT1” (Cell Research, 2024) one finds binding data, which are given here for one substance.

By UniProt entry, the sequences of proteins in these tests, tags left out. Where a name states a change or a piece, a line headed by the entry shows the natural chain unless it says otherwise.
UniProt Q96S37: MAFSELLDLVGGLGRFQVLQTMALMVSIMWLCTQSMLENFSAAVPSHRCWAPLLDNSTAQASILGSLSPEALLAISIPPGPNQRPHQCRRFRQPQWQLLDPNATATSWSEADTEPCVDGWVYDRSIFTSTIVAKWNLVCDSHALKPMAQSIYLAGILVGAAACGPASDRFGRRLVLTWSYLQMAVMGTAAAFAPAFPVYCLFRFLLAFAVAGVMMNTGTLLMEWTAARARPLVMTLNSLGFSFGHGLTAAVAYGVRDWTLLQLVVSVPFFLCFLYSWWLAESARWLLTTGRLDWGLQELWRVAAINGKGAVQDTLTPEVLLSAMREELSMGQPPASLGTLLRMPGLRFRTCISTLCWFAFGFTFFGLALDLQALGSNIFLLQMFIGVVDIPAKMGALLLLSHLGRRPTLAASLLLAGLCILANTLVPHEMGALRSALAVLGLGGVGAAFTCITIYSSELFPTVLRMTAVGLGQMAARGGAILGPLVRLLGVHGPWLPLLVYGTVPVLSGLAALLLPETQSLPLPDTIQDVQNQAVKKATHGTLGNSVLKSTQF
UniProt Q9NSA0: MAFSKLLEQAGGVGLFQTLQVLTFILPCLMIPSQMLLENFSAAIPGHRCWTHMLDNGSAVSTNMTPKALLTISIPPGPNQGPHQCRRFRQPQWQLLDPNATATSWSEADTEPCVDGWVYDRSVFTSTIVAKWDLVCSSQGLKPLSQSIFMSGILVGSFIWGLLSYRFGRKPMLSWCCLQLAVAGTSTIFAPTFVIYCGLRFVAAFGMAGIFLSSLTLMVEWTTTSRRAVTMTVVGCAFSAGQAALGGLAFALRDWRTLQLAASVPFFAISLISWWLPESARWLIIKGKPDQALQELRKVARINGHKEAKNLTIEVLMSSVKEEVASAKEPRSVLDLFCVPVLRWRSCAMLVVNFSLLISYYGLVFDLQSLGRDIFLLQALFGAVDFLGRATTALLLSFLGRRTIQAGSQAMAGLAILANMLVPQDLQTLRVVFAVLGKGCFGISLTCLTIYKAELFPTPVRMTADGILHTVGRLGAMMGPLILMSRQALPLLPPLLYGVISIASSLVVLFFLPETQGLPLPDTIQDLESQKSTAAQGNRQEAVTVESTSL

These are yes or no findings as the source states them, for the method shown.

The target of this experiment is URAT1EM: cryo-EM construct of human URAT1 (residues 3-553) with residues 280-343 and 60-65 replaced by the corresponding OAT4 sequences, fused to MBP and DARPin off7 (human) (UniProt Q96S37+Q9NSA0). The experiment can be described thus: cryo-EM particle images; purified protein at the high concentration used to prepare cryo-EM grids; particles seen on the grids (Supplementary Fig. S1b); both purified.

Regarding “URAT1EM: cryo-EM construct of human URAT1 (residues 3-553) with residues 280-343 and 60-65 replaced by the corresponding OAT4 sequences, fused to MBP and DARPin off7 (from UniProt Q96S37 3-59; Q9NSA0 60-62; Q96S37 66-279; Q9NSA0 277-339; Q96S37 344-553)”, the binding entry is given as “no binding”.
